Test results published in PubChem BioAssay AID504467 (National Center for Advancing Translational Sciences (NCATS), 2011).
Among all 330,000 compounds or so, about 7,700 (2.3%) were called active. The shares of active, inactive and inconclusive entries below differ from those in the screen. Calls follow the shape of the dose curve; as a rule, active = well fitted inhibition curve with a large enough effect; inconclusive = small, poorly fitted or top-dose-only effect, or effect the other way; inactive = flat fitted curve, though single readings scatter. A potency beside an inconclusive call is a rough fit, not a confirmed value.

Test: qHTS screen for small molecules that inhibit ELG1-dependent DNA repair in human embryonic kidney (HEK293T) cells expressing luciferase-tagged ELG1; also: nearly all actives have a fitted effect of over 55% in size
Settings: HEK293T ELG1-luciferase reporter, luminescence, 16 h, DNA damage induced by 5-fluorouridine; series mostly up to 46.1 µM
Procedure, shortened: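 Overnight (16 hr) co-exposure of 2,000 cells/well to 5-fluorouridine and compound at 37 °C preceded detection. Luciferase was quantified via ONE-Glo luminescence; loss of signal denotes inhibition.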
Potency is read from the fitted curve at half-maximal effect.

Question: For `CC(C)N(Cc1ccccc1)C(=O)COC(=O)c1ccc(S(=O)(=O)N2CCOCC2)cc1`, which Potency is on record?
Answer: inconclusive: 20.6 µM [inhibitor, single point]

Question: With `COC(=O)/C=C(\C)NC(=O)c1ccc(F)cc1` as the compound, how does the Potency read?
Answer: inconclusive: 2.59 µM [activator, single point]

Question: Which Potency does the source give for `COC(=O)CN=C1OC(=O)N2C(=O)C3=C4[C@@H](C[C@H]5C(=O)N(c6ccccc6)C(=O)[C@H]5[C@H]4[C@@]12Cc1ccccc1)[C@H]1C(=O)N(c2ccccc2)C(=O)[C@H]1[C@H]3C` here?
Answer: inconclusive: 18.3 µM [activator, partial curve, poor fit]

Question: Which Potency does the source give for `CSc1nc(Cl)cc(N2CCOCC2)n1` here?
Answer: inconclusive: 18.3 µM [activator, single point]

Question: Which Potency does the source give for `CCOC(=O)c1ccc(-c2cccc(-c3cc(=O)oc4cc(OC)cc(OC)c34)c2)cc1` here?
Answer: inactive

Question: With `O=C(NC1CCCCC1)N1CCNCC1` as the compound, how does the Potency read?
Answer: inactive

Question: With `CC(CN1CCCCC1)OC(=O)CCc1ccccc1` (centres undefined) as the compound, how does the Potency read?
Answer: inactive

Question: With `CC(C)C[C@H](NC(=O)OC(C)(C)C)C(=O)N[C@@H](CO)[C@H](O)[C@@H]1C[C@@H]1C(=O)NC1CC1` as the compound, how does the Potency read?
Answer: inactive

Question: Which Potency does the source give for `CCOc1ccccc1N(CC(=O)NC1CCCCC1)C(=O)CCC(=O)Nc1nccs1` here?
Answer: inactive

Question: With `COc1cccc(CNC(=O)c2cc3oc4ccccc4c3n2C)c1OC` as the compound, how does the Potency read?
Answer: inconclusive: 11.6 µM [inhibitor, single point]

Question: For `COc1cccc(C(=O)NCC(=O)N/N=C(C)\C=C\c2ccccc2)c1`, which Potency is on record?
Answer: inactive

Question: With `Cc1cc(C)nc(N/N=C/c2ccccc2)n1` as the compound, how does the Potency read?
Answer: inactive

Question: Which Potency does the source give for `CCc1nc(C(N)=O)c2[nH]c(=O)n(-c3ccccc3F)c2n1` here?
Answer: inconclusive: 13 µM [activator, single point]

Question: For `Cc1ccccc1CN(C)CCS(=O)(=O)c1cc(Cl)ccc1Cl`, which Potency is on record?
Answer: inactive

Question: With `Cc1ccc2nc(N3C(=O)CNC3=S)sc2c1` as the compound, how does the Potency read?
Answer: inconclusive: 18.3 µM [activator, partial curve]

Question: Which Potency does the source give for `CC(=O)Nc1cccc(NC(=O)c2cccc(OCc3ccccc3)c2)c1` here?
Answer: inconclusive: 29.1 µM [inhibitor, single point]

Question: Which Potency does the source give for `Cn1c(=O)c2c(ncn2CCOc2ccc(F)cc2)n(C)c1=O` here?
Answer: inconclusive: 18.3 µM [inhibitor, partial curve, poor fit]

Question: Which Potency does the source give for `CN(C)NC(=O)c1ccc([N+](=O)[O-])s1` here?
Answer: inconclusive: 20.6 µM [inhibitor, single point]

Question: For `CCN(C[C@H]1N[C@@](Cc2ccccc2)(C(=O)OC)[C@H]2C(=O)N(Cc3ccccc3)C(=O)[C@@H]12)C(=O)Nc1ccc(C)cc1`, which Potency is on record?
Answer: inconclusive: 29.1 µM [inhibitor, partial curve, poor fit]

Question: Which Potency does the source give for `O=C(O)c1ccc2c(c1)OCCOCCOCCOCCOCCO2` here?
Answer: inactive

Question: Which Potency does the source give for `O=C(CC1NCCc2ccccc21)Nc1cccc(Cl)c1` (centres undefined) here?
Answer: inconclusive: 18.3 µM [activator, single point]

Question: With `Cc1cnc(-c2nnc(N(C)C(=O)C3CCCO3)s2)cn1` (centres undefined) as the compound, how does the Potency read?
Answer: inconclusive: 20.6 µM [activator, partial curve]

Question: Which Potency does the source give for `CC(C)C[C@H](NC(=O)c1nc[nH]c1C(=O)NCC(=O)OCc1ccccc1)C(=O)OCc1ccccc1` here?
Answer: inconclusive: 16.4 µM [inhibitor, single point]

Question: Which Potency does the source give for `O=C(COc1ccc(S(=O)(=O)NC2CCCCC2)cc1Cl)NCc1ccc2c(c1)OCO2` here?
Answer: inactive

Question: With `O=C(NC1CCCC1)C1CCN(S(=O)(=O)c2ccccc2)CC1` as the compound, how does the Potency read?
Answer: inactive

Question: For `Nc1nc(-c2nc3ccccc3[nH]2)cs1`, which Potency is on record?
Answer: inconclusive: 4.11 µM [activator, partial curve]

Question: With `CN(C)c1nnnn1-c1ccc(OC(F)(F)F)cc1` as the compound, how does the Potency read?
Answer: inactive

Question: Which Potency does the source give for `COc1ccc(-c2csc3ncnc(N4CCN(Cc5ccccc5)CC4)c23)cc1` here?
Answer: inconclusive: 20.6 µM [inhibitor, single point]

Question: With `CC1CN(C(=O)Nc2ccccc2)c2ccccc2-[n+]2ccsc21` (centres undefined) as the compound, how does the Potency read?
Answer: inconclusive: 20.6 µM [inhibitor, partial curve]

Question: With `CN(CC(=O)Nc1ccc(Cl)cc1)C(=O)CNC(=O)c1ccc2ccccc2c1` as the compound, how does the Potency read?
Answer: inconclusive: 16.4 µM [activator, single point]

Question: Which Potency does the source give for `COc1cccc(OCc2nnc(SC)n2C)c1` here?
Answer: inconclusive: 17.8 µM [activator, single point]

Question: Which Potency does the source give for `C/C(=N\Nc1ccc2nncn2n1)c1cccs1` here?
Answer: inconclusive: 29.1 µM [activator, single point]

Question: With `CCn1nc(C)c(C(=O)Nc2cc(Oc3ccc(Cl)cc3)cc([N+](=O)[O-])c2)c1C` as the compound, how does the Potency read?
Answer: inconclusive: 25.9 µM [inhibitor, partial curve]

Question: For `Cc1ccc2cc(C#N)c(NCCNC(=O)C3CCC3)nc2c1C`, which Potency is on record?
Answer: inconclusive: 23.1 µM [inhibitor, partial curve, poor fit]

Question: Which Potency does the source give for `Oc1ccc(Nc2ncnc3scc(-c4ccccc4)c23)cc1` here?
Answer: inconclusive: 13 µM [inhibitor, partial curve, poor fit]

Question: For `COc1cc(-c2nc3ccccn3c2NCC2CCCO2)ccc1O` (centres undefined), which Potency is on record?
Answer: inactive

Question: For `COc1cccc(NC(=O)N2CCN(c3ccc(C(F)(F)F)cn3)CC2)c1`, which Potency is on record?
Answer: inconclusive: 9.2 µM [inhibitor, partial curve]

Question: Which Potency does the source give for `COc1ccc(NC(=O)CN2CCN(S(=O)(=O)c3ccc(C(C)C)cc3)CC2)cc1OC` here?
Answer: inconclusive: 25.9 µM [inhibitor, single point]

Question: Which Potency does the source give for `COc1ccc(CN(CCC#N)CCC2(c3ccccc3)CC(C)N(C)CC2C)cc1OC` (centres undefined) here?
Answer: inconclusive: 20.6 µM [activator, single point]

Question: With `CC1CCCCN1S(=O)(=O)c1ccc(C(=O)Nc2nnc(-c3cccs3)o2)cc1` (centres undefined) as the compound, how does the Potency read?
Answer: inconclusive: 16.4 µM [inhibitor, single point]

Question: With `CCSc1ccc([C@@H]2[C@H]3C(=O)N(C)C(=O)[C@H]3[C@]3(C(=O)OC)CCCCN23)cc1` as the compound, how does the Potency read?
Answer: inactive

Question: For `Cc1ccc(C)c(OCc2cc(C(=O)N3CCOCC3)no2)c1`, which Potency is on record?
Answer: inconclusive: 18.3 µM [activator, partial curve]

Question: Which Potency does the source give for `Cc1ccccc1Cn1c(Cc2ccccc2)nc2ccccc21` here?
Answer: inactive

Question: Which Potency does the source give for `COc1ccc(C2(c3ccc(OC)cc3)NC(=O)N(CC(=O)N(C)C)C2=O)cc1` here?
Answer: inactive
